Test results taken from PubChem BioAssay AID2685 (National Center for Advancing Translational Sciences (NCATS), 2010).
The other results are listed elsewhere or left out. Further columns of the screen follow, without active or inactive calls. Most of these compounds were active or inconclusive in the main read-out, so they are no random draw. Potencies come from curve fits of mixed quality, noted in brackets.

Assay: qHTS Assay for Lipid Storage Modulators in Drosophila S3 Cells;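 as to cell number change: cells counted by Cell Tracker Red CMTPX staining in the red channel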
Conditions: BODIPY lipid droplet fluorescence, 18-24 h; for cell number change: measured here: cell count max response, cells fed with added oleic acid
Outline: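 Laser-scanning cytometry quantifies lipid droplet accumulation (500–530 nm total intensity; droplet/cell object ratio) in oleic acid-fed (400 uM added) Drosophila S3 cells treated with a concentration series. 20 uM Triacsin C defined 100% inhibition.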

[1] = measured here: cell number channel AC50, cells fed with added oleic acid
[2] = measured here: lipid fluorescence (Fed channel) AC50, cells fed with added oleic acid

| Structure (SMILES) | cell number change | AC50 [1] | AC50 [2] |
| --- | --- | --- | --- |
| COc1ccc(NC(=O)CN(C)S(=O)(=O)c2ccc(Br)s2)cc1 | 31.1% | 32.6 µM [rising, single point] | 0.231 µM [falling, full curve, poor fit] |
| COC(=O)C(Cc1ccccc1)OS(N)(=O)=O (stereo not given) | 21% | – | 1.16 µM [rising, full curve] |
| O=C(CSc1nc2ccccc2c(=O)n1-c1ccccc1)NC(=O)CN1CCCC1=O | 1.71% | – | 6.51 µM [rising, single point] |
| Cc1ccc(C)c(S(=O)(=O)N2CCCCC2CCNC(=O)C(=O)NC2CCCC2)c1 (stereo not given) | -14.9% | – | 2.59 µM [rising, single point] |
| CC(=O)Nc1ccc(S(=O)(=O)NCCS(=O)(=O)N2CCN(c3ccccc3F)CC2)cc1 | -6.92% | – | – |
| Cc1cc(-c2ccccc2)nc(N(C)NC(=O)c2cccc(C(F)(F)F)c2)c1S(C)(=O)=O | – | 1.84 µM [rising, partial curve] | 2.06 µM [rising, partial curve] |
| COc1ccc(/C=C/C(=O)c2ccc(Cl)s2)cc1O | 10.1% | – | 0.146 µM [falling, full curve] |
| COc1ccccc1Nc1nc(-c2ccccc2O)nc2ccccc12 | 9.54% | – | 0.0461 µM [rising, partial curve, poor fit] |
| COc1ccc(Cl)cc1NC(=O)CN(C)C(=O)c1cc2c(s1)CCCC2 | – | 6.51 µM [rising, single point] | – |
| COc1ccc2nc(NC(=O)c3cc(S(=O)(=O)N4CCOCC4)ccc3C)sc2c1 | 25.5% | 4.11 µM [rising, full curve, poor fit] | – |
| CC(=O)c1ccc(N=Nc2ccc(C)cc2)cc1 | -77.8% | 1.16 µM [falling, partial curve] | 29.1 µM [falling, single point] |
| COc1ccc(NC(=O)c2ccc(NC(=O)CCS(=O)(=O)c3cccs3)cc2)cc1 | 23.9% | – | 18.4 µM [falling, partial curve] |
| Cc1cccc(C)c1NC(=O)CNC(=O)c1ccc(COc2ccccc2)o1 | -20.9% | 0.82 µM [falling, full curve, poor fit] | 0.651 µM [falling, full curve, poor fit] |
| COc1ccccc1NC(=O)CSCc1ccc([N+](=O)[O-])cc1 | -18.2% | – | 5.17 µM [falling, full curve, poor fit] |
| Cc1cc(S(=O)(=O)NCc2ccccc2)ccc1OCC(=O)NCC1CCCO1 (stereo not given) | -2.87% | 0.731 µM [falling, full curve, poor fit] | 23.1 µM [falling, partial curve] |
| Clc1ccc(-c2csc(N3CCC(c4ccccc4)C3)n2)cc1 (stereo not given) | -28% | – | – |
| N#Cc1nc(COc2cccc(Cl)c2)oc1NCc1ccncc1 | – | 3.66 µM [falling, single point] | 1.16 µM [rising, single point] |
| Cc1ccc(S(=O)(=O)N(c2nc(NC(C)C)nc(NC(C)C)n2)n2cnnc2)cc1 | 8.53% | – | 0.184 µM [falling, partial curve] |
| CC(C)(C)N(NC(=O)Nc1ccccc1)C(=O)c1ccccc1 | -83.3% | – | 0.146 µM [falling, full curve, poor fit] |
| Oc1c(Cl)cc(Cl)cc1CNn1cnnc1 | 10.3% | – | – |

| Structure (SMILES) | cell number change | AC50 [1] | AC50 [2] |
| --- | --- | --- | --- |
| NS(=O)(=O)c1ccc(CCNC(=O)CCCn2c(=O)[nH]c3ccc(Br)cc3c2=O)cc1 | 44.1% | 7.31 µM [rising, partial curve] | – |
| O=C(NC1CCCc2ccccc21)C1CCN(S(=O)(=O)c2cccc(C(F)(F)F)c2)CC1 (stereo not given) | -1.77% | – | 11.6 µM [rising, partial curve, poor fit] |
| O=C(Nc1nnc(-c2ccc(Cl)cc2)o1)Nc1ccccc1F | 7.09% | – | 13 µM [rising, partial curve, poor fit] |
| CC(=O)NCc1ccc(S(=O)(=O)NC(C(=O)O)C(C)C)cc1 (stereo not given) | -36.2% | 0.231 µM [falling, full curve, poor fit] | – |
| CS(=O)(=O)N(CCC#N)Cc1ccc(C=O)o1 | -18.4% | 3.66 µM [falling, single point] | 14.6 µM [falling, single point] |
| CCc1c(C)[nH]n(-c2nc(-c3cccc([N+](=O)[O-])c3)cs2)c1=O | 11% | – | 0.00411 µM [rising, full curve, poor fit] |
| O=C1/C(=N\S(=O)(=O)c2cccs2)C([n+]2ccccc2)=C([O-])c2ccccc21 | – | – | 14.6 µM [falling, partial curve] |
| O=C(c1cccc([N+](=O)[O-])c1)c1ccc2c(c1)OCCOCCOCCOCCO2 | 10.5% | – | 0.651 µM [rising, full curve, poor fit] |
| Cc1nnc(C)n1/N=C/c1cccnc1 | -13.9% | – | 16.4 µM [falling, partial curve] |
| CCOC(=O)COn1c2c(c3c4no[n+]([O-])c4ccc31)CCCC2 | 8.76% | – | – |
| Cc1cc(NS(=O)(=O)c2ccc(NC(=S)NC(=O)c3ccc(C(C)(C)C)cc3)cc2)no1 | 17.4% | – | 16.4 µM [rising, single point] |
| C=CCn1c(N2C(=O)CC(Cc3ccccc3)C2=O)nc2ccccc21 (stereo not given) | – | – | 1.3 µM [rising, full curve] |
| O=C(CSc1nnc(-c2ccccc2)o1)N1CCc2ccccc2C1 | – | 6.51 µM [rising, single point] | – |
| COc1ccc(CCNC(=O)CSc2nc3[nH]ncc3c(=O)n2-c2ccc(C)c(Cl)c2)cc1OC | -17.2% | – | 32.6 µM [falling, single point] |
| CC1=C(C(=O)Nc2ccc(C(=O)NC(C)c3ccccc3)cc2)SCCO1 (stereo not given) | 7.49% | – | – |
| COC(=O)CCNC(=O)c1ccc2[nH]c(C)c(C)c2c1 | 24.5% | – | 6.51 µM [rising, single point] |
| COc1cccc(NC(=O)COC(=O)c2c(NC(C)=O)sc(C)c2C)c1 | -32.4% | 29.1 µM [falling, single point] | – |
| CCOC(=O)N1CCN(C(=O)c2c(-c3c(Cl)cccc3Cl)noc2C)CC1 | 34.8% | 32.6 µM [rising, partial curve, poor fit] | – |
| CCOc1ccc2nc(N(CCCN(C)C)C(=O)c3ccc(S(=O)(=O)N4CCCC4)cc3)sc2c1 | 5.39% | – | 0.411 µM [rising, single point] |
| CC(=O)N(C)c1ccc(NC(=O)N2CCOCC2)cc1 | -6.04% | – | 6.51 µM [rising, partial curve, poor fit] |

| Structure (SMILES) | cell number change | AC50 [1] | AC50 [2] |
| --- | --- | --- | --- |
| Cc1c(/C=N/NC(=O)c2ccccc2O)c2ccccn2c1C(=O)c1ccc(F)cc1 | 41.9% | 2.31 µM [rising, partial curve] | 1.64 µM [rising, partial curve] |
| Nc1nncn1C(=O)c1c(Cl)cccc1Cl | -1.75% | – | – |
| COc1ccc(C(CNC(=O)Cc2ccc(-c3ccccc3)cc2)N(C)C)cc1 (stereo not given) | 33.1% | 32.6 µM [rising, single point] | – |
| CCOc1ccc2[nH]c(S(=O)(=O)CC)nc2c1Cl | 0.128% | – | 1.46 µM [falling, partial curve] |
| CCN1CCN(CC(=O)Nc2ccc(Cl)c(Cl)c2)C(=O)C1=O | 17.3% | 0.206 µM [rising, full curve, poor fit] | 18.4 µM [falling, single point] |
| O=C(CN(Cc1ccco1)C(=O)c1ccc(N2CCCC2=O)cc1)Nc1ccccc1C(F)(F)F | – | 1.64 µM [rising, partial curve] | 0.13 µM [rising, single point] |
| O=C(CCc1ccccc1)Nc1ccccc1F | -4.34% | – | 1.46 µM [falling, full curve] |
| O=C(CSc1nnc2scc(-c3ccccc3)n12)Nc1nsc(-c2ccccc2)n1 | – | – | 0.146 µM [rising, full curve, poor fit] |
| CCCCC(C(=O)NC(C)(C)C)N(Cc1ccccc1Cl)C(=O)c1snc(C(N)=O)c1N (stereo not given) | -19.4% | – | – |
| Cc1ccc(CONC(=O)c2ccccc2)cc1 | -0.292% | – | 0.651 µM [falling, full curve, poor fit] |
| COc1ccc(S(=O)(=O)NC(C)C(=O)N2CCCC2)cc1C (stereo not given) | -15.4% | – | – |
| CCOC(=O)c1sc(NC(=O)CSc2nc3cccnc3n2C)nc1C | 17.9% | – | 6.51 µM [rising, single point] |
| COc1ccc(N2CCN(C(=O)CCc3nnc4ccc(N5CCCC5)nn34)CC2)cc1 | 15.8% | 6.51 µM [rising, single point] | 29.1 µM [rising, single point] |
| CCOC(=O)c1nnn(CC(=O)N2N=C(c3cc(C)ccc3C)CC2c2ccc(OC)cc2)c1C(=O)OCC (stereo not given) | 16.2% | – | 29.1 µM [falling, single point] |
| COc1ccc(C)cc1-n1nnnc1SC/C(O)=C(\C#N)c1nc2ccccc2[nH]1 | – | 1.3 µM [rising, full curve] | 1.84 µM [rising, partial curve] |
| Cc1nc2ccccn2c1C(=O)N/N=C/c1ccc(CNC(=O)C(=O)Nc2ccccc2)o1 | – | – | 29.1 µM [rising, partial curve] |
| Cc1cc(NS(=O)(=O)c2ccc(C(C)C)cc2)no1 | -4.7% | – | 29.1 µM [rising, single point] |
| CCOC(=O)c1sc(NC(=O)CCN2CCC(C)CC2)c(C(=O)OCC)c1C | – | 6.51 µM [rising, single point] | 6.51 µM [rising, single point] |

Ordered by formula weight (descending): part of the list above.

| Structure (SMILES) | cell number change | AC50 [1] | AC50 [2] |
| --- | --- | --- | --- |
| CCOC(=O)c1nnn(CC(=O)N2N=C(c3cc(C)ccc3C)CC2c2ccc(OC)cc2)c1C(=O)OCC (stereo not given) | 16.2% | – | 29.1 µM [falling, single point] |
| Cc1cc(-c2ccccc2)nc(N(C)NC(=O)c2cccc(C(F)(F)F)c2)c1S(C)(=O)=O | – | 1.84 µM [rising, partial curve] | 2.06 µM [rising, partial curve] |
| COc1ccc2nc(NC(=O)c3cc(S(=O)(=O)N4CCOCC4)ccc3C)sc2c1 | 25.5% | 4.11 µM [rising, full curve, poor fit] | – |
| Cc1ccc(S(=O)(=O)N(c2nc(NC(C)C)nc(NC(C)C)n2)n2cnnc2)cc1 | 8.53% | – | 0.184 µM [falling, partial curve] |
| COc1ccc(C)cc1-n1nnnc1SC/C(O)=C(\C#N)c1nc2ccccc2[nH]1 | – | 1.3 µM [rising, full curve] | 1.84 µM [rising, partial curve] |
| COc1ccc(Cl)cc1NC(=O)CN(C)C(=O)c1cc2c(s1)CCCC2 | – | 6.51 µM [rising, single point] | – |
| COc1ccc(C(CNC(=O)Cc2ccc(-c3ccccc3)cc2)N(C)C)cc1 (stereo not given) | 33.1% | 32.6 µM [rising, single point] | – |
| COc1cccc(NC(=O)COC(=O)c2c(NC(C)=O)sc(C)c2C)c1 | -32.4% | 29.1 µM [falling, single point] | – |
| C=CCn1c(N2C(=O)CC(Cc3ccccc3)C2=O)nc2ccccc21 (stereo not given) | – | – | 1.3 µM [rising, full curve] |
| Clc1ccc(-c2csc(N3CCC(c4ccccc4)C3)n2)cc1 (stereo not given) | -28% | – | – |
| Cc1cc(NS(=O)(=O)c2ccc(C(C)C)cc2)no1 | -4.7% | – | 29.1 µM [rising, single point] |
| Nc1nncn1C(=O)c1c(Cl)cccc1Cl | -1.75% | – | – |
| CS(=O)(=O)N(CCC#N)Cc1ccc(C=O)o1 | -18.4% | 3.66 µM [falling, single point] | 14.6 µM [falling, single point] |
| O=C(CCc1ccccc1)Nc1ccccc1F | -4.34% | – | 1.46 µM [falling, full curve] |
